# Results as given in PubChem BioAssay AID624070 (Broad Institute, 2012).
# The source calls these results inconclusive, neither active nor inactive.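 How the source made its calls: active means fitted curve crosses -35% change at a dose up to twice the top valid dose; inconclusive means flat fit showing 30 to 70% drop, or poor fit; inactive means the rest, including rises or flat curves.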
# Experiment: iron-limited Pseudomonas aeruginosa growth inhibition – whole organism, absorbance 405 nm, EDDHA, dry powder, set 5, dose response (AID 624070)
# Conditions: P. aeruginosa ATCC 15692 + EDDHA, A405, 24-30 h; at 120 µM (top of the series)
# Procedure, shortened: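 System: Pseudomonas aeruginosa strain ATCC 15692, whole bacterial cells; Amount: bacteria at final optical density (600 nm) of 0.0000005; Medium: succinate M9 medium, pH 7.0; Incubation: bacterial growth with compound for 24–30 h at 37 °C; Signal: absorbance at 405 nm reflecting pyoverdine production; Probe or stimulus: iron chelator EDDHA at 2 µM final.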
row,SMILES,"activity change, negative = inhibition"
1,CN(C)CCCC(C#N)c1ccc(F)cc1 (configuration not stated),inconclusive: -34.7%
2,CCCCC(c1ccc(Cl)cc1)c1nn[nH]n1 (configuration not stated),inconclusive: -48.9%
